Assay results reported in paper PMC7819943, “Rice protein-binding microarrays: a tool to detect cis-acting elements near promoter regions in rice”.
Some of the results follow.

Sequences of proteins named here, by UniProt entry; tags and fusion partners are left off.
UniProt Q0JBA9, entry or part of it: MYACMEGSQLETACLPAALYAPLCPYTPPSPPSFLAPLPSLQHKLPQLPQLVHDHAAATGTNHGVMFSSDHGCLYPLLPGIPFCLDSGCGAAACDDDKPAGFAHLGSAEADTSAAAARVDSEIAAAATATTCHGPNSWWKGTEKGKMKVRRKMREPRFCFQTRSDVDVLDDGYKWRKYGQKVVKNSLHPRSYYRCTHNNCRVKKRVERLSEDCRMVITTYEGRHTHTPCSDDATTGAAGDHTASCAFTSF

The sequences below were run against OsWRKY34 (Oryza sativa, UniProt Q0JBA9 1-250) (assay: protein-binding microarray (RPBM); PBS, 2% BSA, 51.3 ng/ul salmon testes DNA, 50 uM zinc acetate, 200 nM TF, 25 C, 1 h; high values mean tight binding). Settings: protein: recombinant; tags: N-terminal polyhistidine and DsRed monomer fusion (pET32a); label: CyDye5-dUTP incorporated in the synthesized complementary strand; 3' TTTTT single-stranded linker to array surface; dsDNA, one strand shown.
Summary of the method: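 Binding signal here means per-feature fluorescence intensity in arbitrary units. The values were read on an Axon 4000B scanner after a custom Agilent array, double-stranded by primer extension with Cy5-dUTP, was incubated with 200 nM protein at 25 °C for 1 h in PBS with 2% BSA, salmon testes DNA and 50 µM zinc acetate, then washed. The proteins were transcription factors with an N-terminal polyhistidine tag and DsRed, expressed in E. coli BL21-CodonPlus and purified on Ni–NTA.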

Row | Sequence | binding signal
1 | CTTTTCACTTCATATTATAAAAGCTTTGACTTTTTTTTGTCGGAGTCACCTAGTGCAG | 11600 fluorescence intensity (a.u.)
2 | TATAGATAGTGGTTTGCTCTACTTTTAGGCTCCGTTCGGTCGGAGTCACCTAGTGCAG | 9590 fluorescence intensity (a.u.)
3 | CCGTTCTATCCATAGCGCATGCCTATTTGTATCTTCTCCACGGAGTCACCTAGTGCAG | 9960 fluorescence intensity (a.u.)
4 | GACCTTCCTGCAGAAAAATTGGACATGCAGACATCTAATCCGGAGTCACCTAGTGCAG | 8530 fluorescence intensity (a.u.)
5 | TCTCTTTGGCTGATCTGTGACCGTGAGCTCTTCGTCTCCGCGGAGTCACCTAGTGCAG | 10600 fluorescence intensity (a.u.)
6 | CCGCGGGCTTGGCTTGGCTGGCACCCTCTCCTTCTCGTCTCGGAGTCACCTAGTGCAG | 10300 fluorescence intensity (a.u.)
7 | GCCAGCAGTGCATTATTCTGCCTATATATACGACCTTACCCGGAGTCACCTAGTGCAG | 10800 fluorescence intensity (a.u.)
8 | TTTTTTTTTCTTTTGGGGCGGAAGGAGTAGTATGGAGTTTCGGAGTCACCTAGTGCAG | 12300 fluorescence intensity (a.u.)
9 | AAATAGTAGATGTGACTTATAATCTTTTTTCTTACTTACACGGAGTCACCTAGTGCAG | 8230 fluorescence intensity (a.u.)
10 | CTCACTCGTTTTCCGCATGCATGTTTATCAAACTACTAAACGGAGTCACCTAGTGCAG | 8200 fluorescence intensity (a.u.)
11 | CTCCGGCCTCTACCGCATCTACCACCATCACTAGCTCTCGCGGAGTCACCTAGTGCAG | 10100 fluorescence intensity (a.u.)
12 | TACGTCATCGCTTAATTTCCAAGGCTTCCGTTTTCTCCTACGGAGTCACCTAGTGCAG | 10100 fluorescence intensity (a.u.)
13 | AGCATTTTGTACAAGTGTCATTTTCTCTCTGCCAATCCACCGGAGTCACCTAGTGCAG | 9160 fluorescence intensity (a.u.)
14 | CGAGGATGAAGACTACCTCGTCGTTGACTATGTGTGGTGTCGGAGTCACCTAGTGCAG | 10400 fluorescence intensity (a.u.)
15 | CCTTATTGGAGAAATCTCCTCAACAAGCTCCGTCTCTGCCCGGAGTCACCTAGTGCAG | 8410 fluorescence intensity (a.u.)
16 | TGGTGGTCCGTGTCCGTTTATTTACTGCGTTTACTTCAGTCGGAGTCACCTAGTGCAG | 10200 fluorescence intensity (a.u.)
17 | TTATAGGCCGTGTTATCTTCGACTCTATATCATTTTCAACCGGAGTCACCTAGTGCAG | 9310 fluorescence intensity (a.u.)
18 | CCGCATTCACGGCGGCCTTTTGATCCTGAACTGTCCATATCGGAGTCACCTAGTGCAG | 12000 fluorescence intensity (a.u.)
19 | GGGTGAACAAGCTGTTTTAGGTAATTTTCTGCTTTATCTTCGGAGTCACCTAGTGCAG | 8630 fluorescence intensity (a.u.)
20 | GAATCTCCACCGACTCCGACACCAACACACCCTCGGGCCACGGAGTCACCTAGTGCAG | 8910 fluorescence intensity (a.u.)
21 | GGCATTGTGGCATGTGTAGTGTGCTAACTGCCTAGCACACCGGAGTCACCTAGTGCAG | 8050 fluorescence intensity (a.u.)

Rewritten as labelled records: entries from further up.
CCGTTCTATCCATAGCGCATGCCTATTTGTATCTTCTCCACGGAGTCACCTAGTGCAG
  binding signal: 9960 fluorescence intensity (a.u.)
GACCTTCCTGCAGAAAAATTGGACATGCAGACATCTAATCCGGAGTCACCTAGTGCAG
  binding signal: 8530 fluorescence intensity (a.u.)
TCTCTTTGGCTGATCTGTGACCGTGAGCTCTTCGTCTCCGCGGAGTCACCTAGTGCAG
  binding signal: 10600 fluorescence intensity (a.u.)

(continued)

Row | Sequence | binding signal
22 | CTCCTATTTCCCCTCGTGGTCTCGCCTCGTCTCTTCCTTCCGGAGTCACCTAGTGCAG | 9400 fluorescence intensity (a.u.)
23 | GAATAGTTATCGAGTTGTTTTTTTTTGAGATCATATTTTTCGGAGTCACCTAGTGCAG | 8750 fluorescence intensity (a.u.)
24 | TTCTTTTTTCCATTAGCATTCCAACTTTTCGAAAACCTTCCGGAGTCACCTAGTGCAG | 9030 fluorescence intensity (a.u.)
25 | GCGTGTGGTGGGGTGTGTGGTGGGGACGACGCAGGAAGCGCGGAGTCACCTAGTGCAG | 12400 fluorescence intensity (a.u.)
26 | TCATGTTTAATTCGTGACTTACATGTCCTTTATGGTTGATCGGAGTCACCTAGTGCAG | 10200 fluorescence intensity (a.u.)
27 | CATTGCTACTTCCTTGCAGCGTGTGTGTCGGCTAGACCGTCGGAGTCACCTAGTGCAG | 10300 fluorescence intensity (a.u.)
28 | AATAACTTTTGCTTTAGGTGCATCTTACTGGTCAGATCCTCGGAGTCACCTAGTGCAG | 8130 fluorescence intensity (a.u.)
29 | AAATGTTGAGGTCAAAGTTGTATAACTTTGACTATTTATACGGAGTCACCTAGTGCAG | 9660 fluorescence intensity (a.u.)
30 | CGTCATGTGGCCCGCCCAAAGTTGTGTCTGCTCCGTTCATCGGAGTCACCTAGTGCAG | 8890 fluorescence intensity (a.u.)
31 | ACACTTATGAACTCACACACGTTACACTACTCTCATAAGTCGGAGTCACCTAGTGCAG | 11300 fluorescence intensity (a.u.)
32 | GGCCATTTTAGTCCGTACATTAAGTAATCTGTTGTAATTACGGAGTCACCTAGTGCAG | 8860 fluorescence intensity (a.u.)
33 | CTCAACTTTTAGCTTTTGGTTTCTAGTTCATTTTCTGAATCGGAGTCACCTAGTGCAG | 8670 fluorescence intensity (a.u.)
34 | ACTCTTAGACTGTCAATTGGTCGACATCTACGCTTATCATCGGAGTCACCTAGTGCAG | 8160 fluorescence intensity (a.u.)
35 | TGCTCTCTCTCGTGTGGTCTGGTCCGCGCGCTCGTGTATACGGAGTCACCTAGTGCAG | 9150 fluorescence intensity (a.u.)
36 | ATCCTTTTGTTACCTGCGATACCCTTTTTACAGTGCAGCCCGGAGTCACCTAGTGCAG | 12100 fluorescence intensity (a.u.)
37 | GGATTGGGGTTGAACCAGCCTTGACCCTTATAAAGGGGTTCGGAGTCACCTAGTGCAG | 9180 fluorescence intensity (a.u.)
38 | ATGTTTTGCAATCCTCTGTTTTACAATTGTATTCCTGTCACGGAGTCACCTAGTGCAG | 9320 fluorescence intensity (a.u.)
39 | GCACAAGGCAGATGGAGGTTGTACAGCTATTATTATTTCACGGAGTCACCTAGTGCAG | 8380 fluorescence intensity (a.u.)
40 | ATTATAAGTTGTTTCTTCTTAGGTTGTGTTTAGTTCCTTGCGGAGTCACCTAGTGCAG | 9250 fluorescence intensity (a.u.)
41 | GCGGCTGGGGTTGCGGTGCAATCTGGGGCGGGGATGCGAACGGAGTCACCTAGTGCAG | 17100 fluorescence intensity (a.u.)
42 | CAAGGAGGGAGTTGATGGTGGGATTGATCATGGGAGTTATCGGAGTCACCTAGTGCAG | 8560 fluorescence intensity (a.u.)
